# Laboratory results taken from the supplement of paper PMC3334620.
# Whole data set: some 33,000 sequences, median “E-score (-0.5 to 0.5)” near -0.0014, cut for the highest 2% near 0.25. The list shows a part of the results.
# Molecular target: T1, Cad1 (UniProt P24813)
# T1 sequence: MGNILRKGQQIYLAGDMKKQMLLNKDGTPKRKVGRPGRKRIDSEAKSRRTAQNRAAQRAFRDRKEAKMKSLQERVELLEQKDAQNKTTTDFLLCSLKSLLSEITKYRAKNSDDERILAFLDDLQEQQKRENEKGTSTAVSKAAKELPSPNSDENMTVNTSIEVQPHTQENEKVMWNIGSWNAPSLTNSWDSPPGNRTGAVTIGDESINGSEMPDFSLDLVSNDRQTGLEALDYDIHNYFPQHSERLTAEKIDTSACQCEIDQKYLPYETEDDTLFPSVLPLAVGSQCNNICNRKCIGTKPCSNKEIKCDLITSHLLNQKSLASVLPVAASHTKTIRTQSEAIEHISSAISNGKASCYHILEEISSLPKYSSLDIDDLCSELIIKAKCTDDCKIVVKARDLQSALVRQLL
# Test: PBM E-score (8-mer binding enrichment) (E-score (-0.5 to 0.5)); higher = stronger / more preferred TF binding
# Settings: protein concentration: 100 nM; construct: GST-full length
# Outline: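 Yeast transcription factors, full-length or as DNA-binding domains, were expressed with a GST tag using PURExpress in vitro transcription/translation. At about 100-200 nM they were applied to universal all-10-mer Agilent arrays, double-stranded by primer extension on fresh or once-stripped slides. Fluorescent anti-GST detected bound protein, and masliner normalised the scans. E-scores for ungapped eight-base words, pooled with reverse complements, came from the Universal PBM Analysis Suite.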
row,Sequence,PBM E-score
1,ATACGCGA,0.148
2,CAGTCTCG,-0.184
3,CTCTACTA,-0.169
4,ATACAGGG,0.0876
5,CCGGATCA,-0.0424
6,GTTGGCGA,0.0821
7,AATACGAT,0.169
8,CCGATGCA,-0.0515
9,ATACCGCA,-0.0232
10,CTGGTCCA,-0.13
11,CCTGTGCC,-0.136
12,GATAGCGA,0.0786
13,CCAGCTAG,-0.0767
14,AGAAGAAG,-0.179
15,CTCAGGCA,0.034
16,ACACCATA,0.0574
17,CCCATCTA,-0.157
18,ACTACGTA,0.12
19,ATGATCCA,-0.283
20,AATCTAAC,0.0036
21,TAACCATA,-0.0259
22,AGCATATC,0.025
23,AATATTGT,0.228
24,GCGTTTGA,-0.134
25,AAAGAGGG,-0.156

# A few values from above:
# For PBM E-score, AATATTGT has the entry 0.228
# For PBM E-score, CCGATGCA has the entry -0.0515

# (next part)

row,Sequence,PBM E-score
1,AGCGCTAC,-0.068
2,CTGCCATA,0.188
3,GATCCCAC,0.126
4,ATTTGCGC,0.151
5,AATCTTAG,0.0351
6,AGTGTTAT,0.0689
7,GTAGATGA,0.118
8,GGCGAAAC,0.177
9,TGGATCCA,0.173
10,GGTTGGCA,-0.167
11,CTAAGTCA,0.0905
12,CATTCGTC,0.0375
13,ATAGCTGC,0.202
14,GCGGGCAA,0.0324
15,AATTCGCC,0.154
16,CTACGTGA,-0.114
17,CCCAACTA,0.191
18,CCCGAGAG,-0.141
19,AGCCATCA,0.169
20,GACTGAAA,0.133
21,AATATTAT,0.194
22,CGTTAACC,0.0636
23,CGAAAACC,-0.0625
24,TCTAGGAA,-0.16
25,GAGAAAGA,0.121

# 6 entries from above, bar-delimited:
row | Sequence | PBM E-score
9 | TGGATCCA | 0.173
10 | GGTTGGCA | -0.167
11 | CTAAGTCA | 0.0905
12 | CATTCGTC | 0.0375
13 | ATAGCTGC | 0.202
14 | GCGGGCAA | 0.0324

# (listing goes on)

row,Sequence,PBM E-score
1,GAGCAAAA,-0.0143
2,CACTACGC,-0.154
3,ATCCAGGA,0.0813
4,TGACTACA,-0.0163
5,AACCATAC,-0.0421
6,CAACTGCG,-0.0285
7,CTCCCTCC,-0.248
8,CACTTGGA,0.0343
9,ACTAGTAA,0.15
10,AGAGTCAC,-0.0263
11,CAGGTAGG,-0.00141
12,GAACAGCC,-0.096
13,ACATTCGG,0.0355
14,AGATACTA,0.0948
15,AGGCCCTA,-0.00699
16,AGTAAGGG,0.0236
17,ATCTAGTG,-0.0859
18,CGACTTAA,0.0481
19,CGAACTGC,-0.0728
20,AGAAACTG,0.00645
21,CTCCTGCC,0.00246
22,GGCAATAA,0.0187
23,TGTCGAAA,0.0189
24,GGAAAGCA,0.0683
25,CTGGTGAC,-0.144

row,Sequence,PBM E-score
1,CAGATTGA,0.0187
2,CAATAGTG,0.0793
3,GGTGGAGA,-0.199
4,CAAGACTG,-0.0299
5,AGGGGTGG,-0.023
6,GATCAAGC,-0.0801
7,CGCCTGGC,-0.00971
8,ACAAGACG,-0.105
9,CATCCGTA,0.0222
10,CACACGTG,-0.0205
11,GAGCACCA,-0.0765
12,CCGCCAAG,-0.229
13,ACCTAAGA,-0.118
14,CCGATTTA,0.0459
15,ACAAATCT,0.163
16,ATACCATG,-0.0699
17,AGGAATAA,0.0754
18,ACCCTGCC,-0.176
19,GGCTCGCA,0.0651
20,GATGCGAA,-0.0837
21,ATGTATCC,-0.0106
22,ATTGGAAG,-0.106
23,GCACAATA,0.0602
24,ACCAAGCC,0.0385
25,AGTTGTGG,0.0768

row,Sequence,PBM E-score
1,AAGGCTAC,-0.0943
2,ACGTGTGG,-0.0185
3,CTCGGCAC,-0.112
4,CGTTCTGC,0.221
5,GGGCAAAC,-0.0769
6,TAGCCGGA,0.107
7,CCCAGAAA,0.0763
8,GAAGAGTA,-0.0219
9,AACGACAG,0.0039
10,GACGCCAA,-0.067
11,AAATAGAG,-0.0934
12,CCAAGCTA,-0.194
13,CGGGAACA,0.0385
14,TCTTGGCA,0.0914
15,AATCTAAG,0.0856
16,AGTTTAAT,0.144
17,ACATGGTC,0.0225
18,CCTGAGCC,-0.176
19,AAACCGCT,-0.0723
20,CCAACATC,-0.0678
21,ATTCACCA,0.135
22,CTTGTACA,-0.0604
23,CTACACCA,-0.0458
24,AAACGAGC,0.0793
25,ACACGTCT,-0.107

row,Sequence,PBM E-score
1,GCAATCGC,-0.0759
2,ATTGTCTA,0.17
3,ATCTGATA,-0.203
4,CCACAATA,-0.0654
5,CTAATTGA,0.00473
6,CGTAGGCA,-0.221
7,AATGGCTC,0.00333
8,GCTCGTTA,0.052
9,ATAACAAC,0.0949
10,ATATTAAC,0.224
11,GCATACCC,-0.194
12,CTCTGCCA,-0.194
13,CTCGGACA,0.146
14,CCTAACTC,-0.153
15,CAAACGTC,-0.169
16,GATATCAA,0.211
17,GAACTGCA,0.0499
18,GACTCCAA,-0.0508
19,TGTGGCAA,0.0896
20,CATGGGAG,-0.0423
21,CAAGACTA,-0.188
22,ACACTGAA,0.154
23,GCGACAAA,-0.00034
24,ATCTCAAA,0.0313
25,CAGACTTA,-0.0002

row,Sequence,PBM E-score
1,CGCGGTAG,0.067
2,CCTGACCA,0.106
3,GCTACAGA,-0.224
4,TCATACCA,0.0936
5,ACAGGATA,0.0385
6,TCTCCGAA,0.0727
7,AACATACC,-0.0577
8,AGATTGAA,0.0719
9,CCCGCCCG,0.198
10,ACCTCCCC,-0.167
11,ATACCTCC,-0.104
12,ACGCTCCA,0.0354
13,GCGGTAAA,0.112
14,CGGCCTCC,-0.0902
15,GAATAGGC,-0.0653
16,AAACGATC,-0.00352
17,AGCTGACC,0.198
18,CGCGAACG,0.139
19,AAGGCCGA,0.176
20,ACCTACGC,0.106
21,ATGGACGC,0.114
22,AGACGTAG,0.0693
